The list shows a part of the results. Values are worked out from sequencing counts and are noisy.
Target: T1, Homer1 EVH1 domain
T1 chain: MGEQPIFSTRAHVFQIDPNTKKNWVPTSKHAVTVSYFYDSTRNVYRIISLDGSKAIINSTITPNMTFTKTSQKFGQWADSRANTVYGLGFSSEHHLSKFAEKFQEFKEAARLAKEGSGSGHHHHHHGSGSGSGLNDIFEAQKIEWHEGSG
Assay: enrichment score (AUC of log2 frequency ratio across FACS sorting rounds) (log2 AUC); higher = stronger enrichment for Homer1 EVH1 binding
Binder RYAMVLFRITSVFYMLWLPYIIYLLLESSRVLDNPT has an enrichment score of 2.28. LPCTEKAFFSRVLTYFIALSIGTLLSNALFQLIPVA showed an enrichment score of 2.82. PLMKISPWWYFAVISVSGVFAVTFSVVFAYVADITQ showed an enrichment score of -0.44. GKLFIAPLIMVLGLALGAIAVVIVEEIKTYWNLISG was tested, and the enrichment score was 1.02. AVSASMPQVSYLKAVGVYLWVSSLFVFLSVIEYAAV showed an enrichment score of 3.41. With DPQRLGVLITPVPDAQAATRRQAVGLLAFLGLLFCL the enrichment score was 3.8. In the case of VASKASIPTLPISIYLLLSYFAFISVLFAKIVYTKY, the enrichment score is reported as 4.2. SQFGTIVLHVSEILYEDLHFVAVILAFLAAVAAVLI gave an enrichment score of 2.47. For SSGQLWSWMVCLAGLCAVCLLILSPFWGLIFFSVSR, the enrichment score was 0.749. QFGVLFCTILLLLWVSVFLYGSFYYSYMPTVSHLSP showed an enrichment score of 3.27. With PPAFYRPNSDNRRQGGRERLASTNDKGSMAMESAKD the enrichment score was 0.929. For MTKLRASTTSETIQYRKAVKATLVLLPLLGITYMLF, the enrichment score was 0.31. For IPFGTLVAILALWFCISVPLTFIGAYFGFKKNAIEH, the enrichment score was 1.57. Work on FFTVIFATFSAIIFLSFEAVSSLSKLGEVEDARGFT yielded an enrichment score of 0.171. For MEPQNTSTVTNFQLLGFQNLLEWQALLFVIFLLIYC, the enrichment score was 0.758. With QRGLRERHRLQATSHRKTSLPCPLPVLPRIPSSNCR the enrichment score was 2.32. In the case of LVAWGASLGAWSLLTNRQRNRQAQLLPRAPWKKAQS, the enrichment score is reported as 2.2. With EKSFICYALFGLFATLGFFAPSLYIIPLGISLGIDQ the enrichment score was 1.03. In the case of KQSTCLSLPKCWDYRRAAVPGLFILFFLRHRCPTLT, the enrichment score is reported as -0.15. Work on HLSMKLDAFFGIFFGALGGLLLLGVGTFVVLRFWGC yielded an enrichment score of 1.23. PSMRPLFDFSWLSLKTLLSLALVGACITLGAYLGHK gave an enrichment score of 1.77. YPPMPAMVPHHGFEDWSQIRYPPPPMAMEHPPPLPN showed an enrichment score of 0.501. With ERTGEPSASSDSTGTVGFSSILFIYIIFFLERYYRL the enrichment score was 0.61. Work on QNGLYTPQKFIDNRIISSKYTVWNFVPKNLFEQFRR yielded an enrichment score of -1.39. Work on LPPSVGRPPGFPGAPSAFTSLPPSPRLSTLRILSPR yielded an enrichment score of 5.55. MGPPSSSGFYVSRAVALLLAGLVAALLLALAVLAAS showed an enrichment score of -0.222. Work on YADNILKGFATSLSIVLSTVASIRLFGFHVDPLFAL yielded an enrichment score of 2.26. RKGHCPCLTSCPPLHPLLSYLTVTGCMLNMVSAAPK was tested, and the enrichment score was 1.43. With INAFLIVYLFILLTKAAVCTTLKYVWQSTPYNDEPW the enrichment score was 1.21. With PQDAIPRGTMLAIFITTVAYLGVAICVGACVVRDAT the enrichment score was 4.27. For MDQETVGNVVLLAIVTLISVVQNGFFAHKVEHESRT, the enrichment score was 3.09. Binder MGKDFRYYSQHPWSRMIVAYLVIFFNFLIFAEDPVS has an enrichment score of -0.558. In the case of ELGMEGKVIKTQNLAALLHAIARRPKGQQLAWDFVR, the enrichment score is reported as 0.194. Binder QVVALSSWCLLRDSIYYTLSVIALIVFIYDEKVSWW has an enrichment score of 0.124. Binder MEVKNFAVWDYVVFAALFFISSGIGVFFTIKERKKA has an enrichment score of 5.13. LVASGCFLLIVLSYVSIVCSILRIHTSEGRHRAFQT was tested, and the enrichment score was 1.85. For QTRLEADPGPPAHFRSRPQRREVRPRRRPLRYPCFQ, the enrichment score was 3.2. Binder KRKAPFFASDFYDALNIQALSAILFIYLATVTNAIT has an enrichment score of 1.44. Binder TKSKTSPVVSGSSSKSTTLPRPRPTRPSLLRRARLG has an enrichment score of -0.66. Binder QLDYGVQFTSSRKFFTISPIILYFLASFYTKYDPTH has an enrichment score of -2.69. For AQIVLPALFVGLALVFSLIVPPFGHYPALRLSPTMY, the enrichment score was 4.96. In the case of PFGDSRMYNITFTKVLSVCVWVIMAVLSLPNIILTN, the enrichment score is reported as 3.56. For SHRMEMWLLILVAYMFQRNVNSVHMPTKAVDPEAFM, the enrichment score was 0.355. LVCVAVWLAVTTQCLPTAIFAATGIQRNRTVCYDLS gave an enrichment score of -0.57.
